Data on one substance can be found in PMC7980560.

The target in the test is T1, HA-tagged Noggin-1 (wild type) (zebrafish) (UniProt Q9W741).
T1 sequence: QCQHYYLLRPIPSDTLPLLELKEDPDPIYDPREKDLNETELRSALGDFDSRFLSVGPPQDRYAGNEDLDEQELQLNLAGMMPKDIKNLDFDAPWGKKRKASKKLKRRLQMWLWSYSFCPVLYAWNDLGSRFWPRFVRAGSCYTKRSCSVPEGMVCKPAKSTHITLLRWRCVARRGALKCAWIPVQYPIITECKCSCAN
In words: co-IP; GFP-tagged Zisp and HA-tagged Noggin (nog1, nog2, nog3) co-transfected (text: RPE1 cells; legend: embryos); immunoprecipitation with anti-HA, western blot for GFP; lysis in 50 mM Tris-HCl pH 7.5, 150 mM NaCl, 1% Triton. In general terms: In western blotting, separated proteins are transferred to a membrane and probed.

No constants are given. Whether binding was seen depends on the method and setting. In cells and extracts the contact can be indirect. Binding calls can cover weak binding; strength is not graded here. Sequences can lack the tags named with a protein.

Take “GFP-tagged Zisp (zebrafish DHHC palmitoyl acyltransferase Zisp/Zdhhc8) (enzyme)”: the binding result is on record as “binds”.
